Source: PubChem BioAssay AID292 (DTP/NCI, 2004)
The list does not hold the whole screen: it is rich in T/C values a quarter to a half above the control, in often repeated tests (any T/C) and in doses without a T/C. Further doses and runs are listed elsewhere. T/C is the treated group as % of the vehicle group. Some doses have a count of surviving animals in place of a T/C: the source files T/C as zero there, which appears to mark a toxic dose or a test without result, not a measured value. Some doses without a T/C left all or most animals alive at the check, yet need not have been tolerated: the source hardly ever lists a survival T/C far under the control, and the zero likely stands for such cases as well. Counts of survivors are from the toxicity check (mostly the fifth day) where no day follows; animals may have died later. Schedules are NCI's codes, taken here to give the interval after Q, in days (D) or hours (H), and the number of doses after X. Some entries hold several experiments; the values are given in rising order. Where survival is the endpoint, this PubChem deposit counts one and a half times the control or more as active, and values a quarter to a half above the control carry no call in these data; other NCI protocols may use other cut-offs. Some T/C values carry the count of animals alive at the toxicity check (mostly the fifth day); without a count, all were alive then.

Tested on: B6C3F1 mice, ip Sarcoma M5076, median survival T/C
Test: NCI In Vivo Anticancer Drug Screen. Data for tumor model Sarcoma M5076 (intraperitoneal) in B6C3F1 mice
Details: T/C endpoint: median survival time, higher T/C = longer survival
How it was run: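 Transplantable tumour in mice; compound-treated vs vehicle-treated groups. Read-out: survival. Value = treated/control ratio.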

[1] = dose: 400.0 mg/kg/injection, schedule: Q04DX004 (ip), vehicle: saline with Tween-80
[2] = dose: 800.0 mg/kg/injection, schedule: Q04DX004 (ip), vehicle: saline with Tween-80
[3] = dose: 300.0 mg/kg/injection, schedule: Q04DX004 (ip), vehicle: saline with Tween-80
[4] = dose: 100.0 mg/kg/injection, schedule: Q04DX004 (ip), vehicle: saline with Tween-80
[5] = dose: 800.0 mg/kg/injection, schedule: Q04DX004 (ip), vehicle: Klucel (hydroxypropylcellulose) (HPC)

Structure (SMILES): Cc1c2ccccc2cc2cccc[n+]12
- survivor count (dose: 80.0 mg/kg/injection, schedule: Q04DX004 (ip), vehicle: saline): 0 of 10 on day 9
- survivor count (dose: 160.0 mg/kg/injection, schedule: Q04DX004 (ip), vehicle: saline): 0 of 10 on day 9

Structure (SMILES): O=C1NCC(Br)C(=O)N1 (stereo not given)
- survivor count (dose: 800.0 mg/kg/injection, schedule: Q04DX004 (ip), vehicle: saline + Tween-80 + alcohol): 4 of 10 on day 14

Structure (SMILES): C/C=C/C=C\C=C/C(O)CC(OP(=O)(O)O)C(C)(O)/C=C/C1CC=CC(=O)O1 (stereo not given)
- T/C (dose: 12.0 mg/kg/injection, schedule: Q04DX004 (ip), vehicle: Klucel (hydroxypropylcellulose) (HPC)): 126 % of control
- T/C (dose: 12.0 mg/kg/injection, schedule: Q04DX004 (ip), vehicle: water): 127 % of control
- T/C (dose: 24.0 mg/kg/injection, schedule: Q04DX004 (ip), vehicle: water): 131 % of control [9 of 10 alive on day 14]
- survivor count (dose: 48.0 mg/kg/injection, schedule: Q04DX004 (ip), vehicle: water): 6 of 10 on day 14

Structure (SMILES): O=C(Nc1ccccc1)c1c(O)[nH]c(=O)[nH]c1=O
- T/C [1]: 131 [8 of 10 alive on day 14] and 138 % of control [7 of 10 alive on day 14]
- survivor count [2]: 0 of 10 on day 14

Structure (SMILES): O=S1(=O)C(c2ccc(F)cc2)=C(O)c2cc3ccccc3nc21
- survivor count (dose: 137.5 mg/kg/injection, schedule: Q04DX004 (ip), vehicle: sodium bicarbonate): 10 of 10 on day 14
- survivor count (dose: 275.0 mg/kg/injection, schedule: Q04DX004 (ip), vehicle: sodium bicarbonate): 6 of 10 on day 14

Structure (SMILES): CC1(CO)C(O)CCC2(C)C1CCC1CC3CC12CCC3(O)CO (stereo not given)
- T/C (dose: 144.0 mg/kg/injection, schedule: Q04DX004 (ip), vehicle: Klucel (hydroxypropylcellulose) (HPC)): 137 % of control
- T/C (dose: 400.0 mg/kg/injection, schedule: Q04DX005 (ip), vehicle: Klucel (hydroxypropylcellulose) (HPC)): 138 % of control [7 of 10 alive on day 14]
- survivor count (dose: 666.67 mg/kg/injection, schedule: Q04DX004 (ip), vehicle: Klucel (hydroxypropylcellulose) (HPC)): 0 of 10 on day 14 and 5 of 10 on day 14
- survivor count (dose: 1111.12 mg/kg/injection, schedule: Q04DX004 (ip), vehicle: Klucel (hydroxypropylcellulose) (HPC)): 0 of 10 on day 14

Structure (SMILES): CCN(CC)CCN1C(=O)C2C3C=CC(C2C1=O)C1C2C(=O)N(CCN(CC)CC)C(=O)C2C31 (stereo not given)
- survivor count (dose: 400.0 mg/kg/injection, schedule: Q04DX004 (ip), vehicle: water): 0 of 10 on day 14

Structure (SMILES): Cc1ccc(-n2c(CSc3ccc(Cl)cc3)nnc2SCc2nc3ccccc3[nH]2)cc1
- survivor count [3]: 10 of 10 on day 14

Structure (SMILES): COC(=O)Nc1ccc(Cc2ccc(NC(=O)OC)cc2)cc1
- T/C [3]: 140 % of control
- T/C [1]: 149 % of control
- survivor count [2]: 0 of 10 on day 14

Structure (SMILES): O=c1[nH]c(=O)n(C2CC(O)C(CO)O2)cc1C(F)(F)F (stereo not given)
- T/C [2]: 125 % of control
- T/C (dose: 1600.0 mg/kg/injection, schedule: Q04DX004 (ip), vehicle: saline with Tween-80): 133 % of control

Structure (SMILES): Cc1cn(C2CC(F)C(CO)O2)c(=O)[nH]c1=O (stereo not given)
- T/C (dose: 1200.0 mg/kg/injection, schedule: Q04DX004 (ip), vehicle: suspension in saline): 126 % of control

Structure (SMILES): Cc1ccc(C(=O)Nc2ccc(S(=O)(=O)O)c3cc(S(=O)(=O)O)cc(S(=O)(=O)O)c23)cc1NC(=O)c1cccc(NC(=O)Nc2cccc(C(=O)Nc3cc(C(=O)Nc4ccc(S(=O)(=O)O)c5cc(S(=O)(=O)O)cc(S(=O)(=O)O)c45)ccc3C)c2)c1
- T/C (dose: 100.0 mg/kg/injection, schedule: Q04DX004 (ip), vehicle: saline): 136 % of control
- T/C (dose: 200.0 mg/kg/injection, schedule: Q04DX004 (ip), vehicle: saline): 143 and 144 % of control
- survivor count (dose: 400.0 mg/kg/injection, schedule: Q04DX004 (ip), vehicle: saline): 0 of 10 on day 14

Structure (SMILES): CCOC(=O)C(N)CSC(=O)NC (stereo not given)
- T/C (dose: 600.0 mg/kg/injection, schedule: Q04DX004 (ip), vehicle: saline): 127 [9 of 10 alive on day 14] and 135 % of control [9 of 10 alive on day 14]
- survivor count (dose: 1000.0 mg/kg/injection, schedule: Q04DX004 (ip), vehicle: saline): 0 of 10 on day 14 and 1 of 10 on day 14
- survivor count (dose: 1666.67 mg/kg/injection, schedule: Q04DX004 (ip), vehicle: saline): 0 of 10 on day 14

Structure (SMILES): OCC1OC(n2cnc3cc(Cl)c(Cl)cc32)C(O)C1O (stereo not given)
- survivor count (dose: 1200.0 mg/kg/injection, schedule: Q04DX004 (ip), vehicle: saline with Tween-80): 0 of 10 on day 14

Structure (SMILES): COc1ccc(C(C)c2cc3c(cc2OC)OCO3)cc1 (stereo not given)
- T/C [4]: 129 % of control
- survivor count [1]: 0 of 10 on day 9

Structure (SMILES): O=C1C2CC3CC1CC(Cl)(C3)C2
- survivor count [4]: 7 of 10 on day 14
- survivor count (dose: 200.0 mg/kg/injection, schedule: Q04DX004 (ip), vehicle: saline with Tween-80): 0 of 10 on day 14

Structure (SMILES): C[C@@]1(CO)[C@H](O)CC[C@@]2(C)[C@H]1CC[C@H]1C[C@@H]3C[C@@]12CC[C@@]3(O)COC(=O)CN
- T/C (dose: 5.0 mg/kg/injection, schedule: Q03HX027 (ip), vehicle: saline + alcohol): 128 % of control
- T/C (dose: 15.0 mg/kg/injection, schedule: Q01DX009 (ip), vehicle: saline + alcohol): 127 % of control
- T/C (dose: 20.0 mg/kg/injection, schedule: Q03HX027 (ip), vehicle: saline + alcohol): 127 % of control
- T/C (dose: 30.0 mg/kg/injection, schedule: Q01DX009 (ip), vehicle: saline + alcohol): 126 % of control
- T/C (dose: 33.3 mg/kg/injection, schedule: Q03HX027 (ip), vehicle: saline + alcohol): 136 % of control
- T/C (dose: 40.0 mg/kg/injection, schedule: Q03HX027 (ip), vehicle: saline + alcohol): 131 % of control
- T/C (dose: 60.0 mg/kg/injection, schedule: Q01DX009 (ip), vehicle: saline + alcohol): 136 % of control
- survivor count (dose: 80.0 mg/kg/injection, schedule: Q03HX027 (ip), vehicle: saline + alcohol): 0 of 10 on day 14
- survivor count (dose: 150.0 mg/kg/injection, schedule: Q04DX004 (ip), vehicle: saline + alcohol): 5 of 10 on day 14
- survivor count (dose: 240.0 mg/kg/injection, schedule: Q01DX009 (ip), vehicle: saline + alcohol): 0 of 10 on day 14
- survivor count (dose: 300.0 mg/kg/injection, schedule: Q04DX004 (ip), vehicle: saline + alcohol): 0 of 10 on day 14

Structure (SMILES): CCC1OCC(C(Cl)CCl)O1 (stereo not given)
- survivor count [1]: 10 of 10 on day 14
- survivor count [2]: 2 of 10 on day 14

Structure (SMILES): C=C1C(O)C2(O)OCC34C(CC5C(C)=CC(=O)C(O)C5(C)C23)OC(=O)C(OC(=O)C/C=C/CCCCCCCC)C14 (stereo not given)
- T/C (dose: 4.0 mg/kg/injection, schedule: Q04DX004 (ip), vehicle: saline + alcohol): 130 % of control
- T/C (dose: 4.8 mg/kg/injection, schedule: Q04DX004 (ip), vehicle: saline + alcohol): 138 % of control
- T/C (dose: 8.0 mg/kg/injection, schedule: Q04DX004 (ip), vehicle: saline + alcohol, evaluated on day 50): 121 % of control [9 of 10 alive on day 14]
- T/C (dose: 8.0 mg/kg/injection, schedule: Q04DX004 (ip), vehicle: saline + alcohol, evaluated on day 60): 102, 117, 168 % of control
- survivor count (dose: 13.33 mg/kg/injection, schedule: Q04DX004 (ip), vehicle: saline + alcohol): 4 of 10 on day 14
- survivor count (dose: 16.0 mg/kg/injection, schedule: Q04DX004 (ip), vehicle: saline + alcohol): 0 of 10 on day 14
- survivor count (dose: 22.22 mg/kg/injection, schedule: Q04DX004 (ip), vehicle: saline + alcohol): 4 of 10 on day 14 and 5 of 10 on day 14
- survivor count (dose: 32.0 mg/kg/injection, schedule: Q04DX004 (ip), vehicle: saline + alcohol): 0 of 10 on day 14
- survivor count (dose: 64.0 mg/kg/injection, schedule: Q04DX004 (ip), vehicle: saline + alcohol): 0 of 10 on day 14

Structure (SMILES): CCOC(=O)/C=C1/SC(N2CCCCC2)C(=O)N1CC (stereo not given)
- survivor count [5]: 0 of 10 on day 14

Structure (SMILES): COc1ccc(OC)c(N2C(=O)C(=O)C(C(C)=O)C2=O)c1 (stereo not given)
- survivor count (dose: 200.0 mg/kg/injection, schedule: Q04DX004 (ip), vehicle: Klucel (hydroxypropylcellulose) (HPC)): 0 of 10 on day 14
- survivor count (dose: 400.0 mg/kg/injection, schedule: Q04DX004 (ip), vehicle: Klucel (hydroxypropylcellulose) (HPC)): 0 of 10 on day 14
- survivor count [5]: 0 of 10 on day 14
